Data as given in article PMC6642096 (Nature Communications, 2019).
Results are given in words; binding and its absence hold for the method and conditions named. Binding seen in cells or lysates may run through a third protein. Some results given as binding are weak or reduced against the parent protein; the word gives no strength.

Sequences of proteins named here, by UniProt entry; tags and fusion partners are left off.
UniProt O60238: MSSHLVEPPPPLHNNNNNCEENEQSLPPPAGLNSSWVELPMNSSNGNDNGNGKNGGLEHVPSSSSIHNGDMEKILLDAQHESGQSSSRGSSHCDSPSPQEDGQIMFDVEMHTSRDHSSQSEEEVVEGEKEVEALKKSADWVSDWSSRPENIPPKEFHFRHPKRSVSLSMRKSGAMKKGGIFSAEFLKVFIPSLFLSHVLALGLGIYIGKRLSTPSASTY
UniProt F5HF68: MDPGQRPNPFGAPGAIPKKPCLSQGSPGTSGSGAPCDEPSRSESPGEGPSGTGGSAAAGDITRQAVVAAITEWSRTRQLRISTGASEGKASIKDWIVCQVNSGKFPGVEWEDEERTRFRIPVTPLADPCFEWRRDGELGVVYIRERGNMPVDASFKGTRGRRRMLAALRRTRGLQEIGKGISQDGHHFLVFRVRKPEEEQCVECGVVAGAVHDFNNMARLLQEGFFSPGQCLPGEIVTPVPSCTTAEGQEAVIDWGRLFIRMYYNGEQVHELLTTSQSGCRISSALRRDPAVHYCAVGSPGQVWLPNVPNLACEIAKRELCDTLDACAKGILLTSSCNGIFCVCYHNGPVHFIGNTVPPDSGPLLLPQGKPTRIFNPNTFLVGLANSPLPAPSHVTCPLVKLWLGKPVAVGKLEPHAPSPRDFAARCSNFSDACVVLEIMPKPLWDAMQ

Target: NIX (BNIP3L), endogenous in iBCBL-1 cells (human (endogenous in iBCBL-1)) (UniProt O60238)
Assay: co-IP

## viral interferon regulatory factor 1 (vIRF-1), expressed from HHV-8 in lytic iBCBL-1 cells (from UniProt F5HF68 1-449)
  binding: binds
